# Source: the supplement of paper PMC10338343
# ± gives the standard deviation. Only a part is listed here, and it is no random draw. Many of these values have a large error.
# System: MIWI (PIWIL1) piRISC loaded with Kctd7 piRNA (30 nt)
# Test: pre-steady-state target cleavage rate (min^-1); MIWI and MILI are mouse PIWI proteins and EfPiwi is from a freshwater sponge; tags in brackets are library labels; higher = faster piRNA-guided slicing of the target
# Details: guide: Kctd7 piRNA 5'p-UGUUAAUCUCUCAGAGAAGGUGACAGUGAU; auxiliary factor: 500 nM mouse GTSF1
# Summary of the method: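 The pre-steady-state cleavage rate was derived from a burst-and-steady-state fit of Cleave-'n-Seq data. For these assays, 1 nM active affinity-purified piRISC loaded with a single synthetic guide was mixed with […] a transcribed, DNA-blocked target RNA library in HEPES–potassium acetate buffer at 33 °C, with or without 500 nM GTSF1 partner protein, for 0–8 or 0–960 min. Sequencing counts of uncleaved targets were normalised to depth and to weakly complementary targets, and k3 was capped at 0.0001 min^-1 after three trials were pooled.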
# 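Note: 1 nM active piRISC with 0.1 nM target library at 33 °C single turnover.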
row,Sequence,pre-steady-state target cleavage rate
1,UAGUGACAGUGGAAGAGACUGUCUUUAACA,0.000753 ± 0.01
2,UAGUCUGUCAGGAUCUCUGAGAGAUUAAGA,0.00328 ± 0.0033
3,UAGUGACAGACCUUCUCUGUGAGAAUAACA,0.0031 ± 0.0056
4,UACACUGUCAGGAUCUCUGAGAGAUAUUGA,0.000103 ± 0.035
5,UACACUGUCACCUUCUGACAGAGAUUAAGA,0.000464 ± 0.028
6,UAGUGACAGUGGAAGAGUGAGAGAUUCAACA,0.000103 ± 0.069
7,UAGUGAGUCACCAACUCUGAGAGAUUAUGA,0.00154 ± 0.0051
8,AUCACUGUCAGGAUCUCUGAGAGAUUAUGA,0.00135 ± 0.0055
9,AUCACUGUGUGCUUCUCUGAGAGAUUAUGA,0.00109 ± 0.0061
10,UAGUGACAGUGCUUCUCUGAAGAUUAACA,0.000116 ± 0.023
11,UAGUGACUCACCUUCUCUGAGACAUUAUGA,0.00302 ± 0.0035
12,UAGUGACAGUGGAAGAGAGACAGAUUAUCA,0.000264 ± 0.016
13,UACACUGUCACCUUCUCUGAGACUUAUUGA,0.00189 ± 0.006
14,UAGACUGUCACCUUCUCUGUGAGAUAUUGA,0.00204 ± 0.0037
15,UAGUGACUCUCCUUCUCUCAGAGAUUAACA,0.00165 ± 0.0035
16,UAGUGACAGUCCAUCUCUGUGAGAUUAACA,0.000787 ± 0.0077
17,UAGUCUGUCACCAUUCUCUGAGAGAUUAACA,0.601 ± 0.03
18,UAGUGACAGUGGAAGAGACUGUCAUUAACA,0.0014 ± 0.0075
19,UAGUGACUCACCUUCUCUGAGAGAUAUACA,0.143 ± 0.019
20,UAGUGACAGUGCUUCUCUGACUCAUUAAGA,0.00015 ± 0.022
21,UAGUGACAGUGGAACUCUGAGAGAUUAACCA,0.000115 ± 0.039
22,UAGUGACAGUCCUUCUCUGAGGAUUAACA,0.000871 ± 0.0035
23,UAGUGACAGUGGAAGAGAGAGAGAUUAUACA,0.000183 ± 0.036

row,Sequence,pre-steady-state target cleavage rate
1,UAGUGACAGUCCUUCUCUGAGAGAUAACA,0.000206 ± 0.012
2,UAGUGACAGUCCUUCUCUGACACAUUAACA,0.00037 ± 0.018
3,UAGACUGUCACCUUCUGAGAGAGAUUAUGA,0.00125 ± 0.0045
4,UAGUGACAGACCUUGUGUGAGAGAUUAACA,0.000653 ± 0.012
5,UAGUGUGUCACCUUCUCUCUGAGAUAUUGA,0.000926 ± 0.0097
6,UAGUGACAGACCUUCUGACAGAGAUUAACA,0.000324 ± 0.035
7,UAGUGACAGUGCUUCUCUGAGAGAUUACACA,0.00159 ± 0.0041
8,UUCACUGUCACCUUCUCUGAGGGAUUAACA,0.51 ± 0.024
9,UAGUGACUCACCUUCUCUGUGUGAUUAACA,0.00321 ± 0.0041
10,UAGUGACAGUCCUUCACAGAGAGAUUAACA,0.00116 ± 0.0088
11,AUCACUGUCACUCUUCUCUGAGAGAUUAACA,0.53 ± 0.035
12,UAGUGACAGUGCUUCUCUGAGAGAUAAUCA,0.00028 ± 0.0069
13,UAGUGACAGUCCUACUCUGAGAGAUUUACA,0.00152 ± 0.005
14,UAGUGACAGUGCUUCUCUCGAGAGAUUAACA,0.00103 ± 0.0074
15,AUCACUGUCGCCUUCUCUGAGAGAUUAACA,0.819 ± 0.053
16,UAGUGACAGUGGAACUCUGACUCAUUAACA,0.000245 ± 0.021
17,UUCACUGUCACCUUCUCUGACUGAUUAUGA,0.0019 ± 0.0046
18,UAGUGAGUCACCUUCUCUGACAGAUAUUGA,0.00268 ± 0.0031
19,UAGUGACAGACCUUCUCUGAGAAUUAACA,0.000838 ± 0.013
20,UAGUGACAGUGGAACUCUGAGAGAUUAACA [g2:g16:cont:t1A],0.000175 ± 0.022
21,UAGUGACAGUGCUUCUCUGGAGAUUAACA,0.000722 ± 0.0069
22,UAGUGACAGUGGUAUCUCUGAGAGAUUAACA,0.000139 ± 0.025
23,UUCACUGUCACCUUCUCUGUGAGAUUAUCA,0.106 ± 0.025

row,Sequence,pre-steady-state target cleavage rate
1,UAGACUGUCGACCUUCUCUGAGAGAUUAACA,0.121 ± 0.013
2,UAGUGACAGACCUUCUCACUGAGAUUUUGA,0.000257 ± 0.053
3,UAGUGACACUGGUUCUCUGAGAGAUUAUGA,0.000599 ± 0.0086
4,UAGUGACAGUGGAACUCUGAGCGAUUAACA,0.0052 ± 0.007
5,UAGUGUGUCUGCUUCUCUGAGAGAUAUUGA,0.000495 ± 0.0064
6,UACACUGUCACGAUCUCUGAGAGAUUUUGA,0.00219 ± 0.0063
7,UAGUGACAGUGCUUCUCUCAGAGAUUAUCA,0.000742 ± 0.011
8,UAGUGACAGUGGAUCUCUGAGAGAUUAACCA,0.000249 ± 0.014
9,UAGUGACUCACCUUCUCUGACAGAUAUUGA,0.000488 ± 0.015
10,UAGUGACACACCUUCUCUGAGACAUUAAGA,0.00138 ± 0.0055
11,UAGACUGUCACCUUGAGUGAGAGAUUUUGA,0.000156 ± 0.042
12,UAGUGACACACCUUCUCAUGAGAGAUUAACA,0.00089 ± 0.013
13,UAGUGACAGACCUUCUUGAGAGAUUAACA,0.000669 ± 0.017
14,UAGUGACAGACCAACUCUGAGAGAUUAUGA,0.000105 ± 0.027
15,UAGUGACACACCUUCUCUCUGAGAUAUUGA,0.000932 ± 0.0089
16,UAGUGUGUCACCUUCUGAGAGAGAUUUUGA,0.00289 ± 0.006
17,UAGUGACAGUGGAAGAGACAGAGUAAAACA,0.000114 ± 0.05
18,UAGUGACUCACCUUGAGUGAGAGAUUAACA,0.000885 ± 0.0089
19,UAGUGACAGUCCUUCUCUGAGUGAUAAACA,0.00126 ± 0.0057
20,UAGUGACAGACCUUCUCAUGAGAGAUUAACA,0.000949 ± 0.0092
21,UAGACUGUCACCUUCAGAGAGAGAUUUUGA,0.00213 ± 0.0054
22,UAGUGACAGUGCUUCUCUGAGAGACUUAACA,0.00147 ± 0.0034
23,ACUCACUGUCACCUUCUCUGAGAGAUUAACA,0.781 ± 0.054

row,Sequence,pre-steady-state target cleavage rate
1,UAGUGACUCACCUAGUCUGAGAGAUUAUGA,0.000409 ± 0.02
2,UUCACUGUCACCUUCUCUGAGUCUAAUUGA [g10:g29:cont:t1A],0.00252 ± 0.0034
3,UAGUGACAGUGGAAGUCUGACUCAUUAACA,0.000167 ± 0.018
4,UAGUGACACACCUUCUCUGAGAAUUAACA,0.00401 ± 0.0044
5,AUCACUGUCACCUUCUCUGACUCAUAUUGA,0.00142 ± 0.0051
6,UAGUGACACAGCUUCUCUGAGAGAUUAUGA,0.00591 ± 0.0022
7,UAGUCUGUCACCUUCUCACAGAGAUAUUGA,0.00214 ± 0.0053
8,UAGUGACAGUGCUUCACAGAGAGAUUAACA,0.000763 ± 0.012
9,UACACUCACACCUUCUCUGAGAGAUAUUGA,0.0241 ± 0.012
10,UAGUGACAGACCUUCUCUGGAGAGAUUAACA,0.000962 ± 0.012
11,UAGUGACAGUCGUUCUCUGAGAGAUAAACA,0.00113 ± 0.0084
12,UAGUGACAGACCUUCUCUGAGAGUUUAAGA,0.00291 ± 0.0048
13,UAGUGUGUCACGAACUCUGAGAGAUUAUGA,0.000511 ± 0.017
14,UAGACUGUCACAUUCUCUGAGAGAUUAACA,0.77 ± 0.051
15,UAGUGACACACCUUCACAGAGAGAUUAACA,0.00498 ± 0.0055
16,UAGUGACUCUGCUUCUCUGAGAGAUUAAGA,0.00127 ± 0.0041
17,UAGUGACUCACCUUCUCUGAGCAGAUUAACA,0.00114 ± 0.0076
18,AUCACUGUCACCUUGCUCUGAGAGAUUAACA,1.1 ± 0.18
19,AUCACUGUCACCUUUCUGAGAGAUUAACA,0.532 ± 0.025
20,UAGUGACAGUCCUUCUCUGAGUAGAUUAACA,0.000394 ± 0.015
21,UAGUGACAGUGGAAGAGACUCAGAUUAACU [g2:g9:cont:t1U],0.000183 ± 0.02
22,UAGUGACAGUGCUUCUCUGAGAGUUAAACA,0.000438 ± 0.0089

# Not a retest: entries from further up.
row,Sequence,pre-steady-state target cleavage rate
4,UAGUGACACACCUUCUCUGAGAAUUAACA,0.00401 ± 0.0044
5,AUCACUGUCACCUUCUCUGACUCAUAUUGA,0.00142 ± 0.0051
6,UAGUGACACAGCUUCUCUGAGAGAUUAUGA,0.00591 ± 0.0022
7,UAGUCUGUCACCUUCUCACAGAGAUAUUGA,0.00214 ± 0.0053
8,UAGUGACAGUGCUUCACAGAGAGAUUAACA,0.000763 ± 0.012
9,UACACUCACACCUUCUCUGAGAGAUAUUGA,0.0241 ± 0.012
